Our source for the OD600 values is the supplement of paper PMC11546906.

Structures can show the parent of a compound that is named as a salt. This is one part of the list. This data set is noisy: repeats of one test often differ as much as different tests do.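 Screen of FDA-approved drugs, each combined with colistin at one-eighth of its MIC, against a multidrug-resistant mcr-1-positive clinical E. coli isolate; growth read as OD600 after 24 h. Bacteria without drug were the growth control and plain broth the blank. A combination counted as active when OD600 fell below 0.2.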

The test system of the assay is Escherichia coli 42 (mcr-1-positive clinical isolate). The assay is described as follows: OD600 after 24 h growth with compound plus colistin (absorbance units (OD600)); higher = more bacterial growth (less inhibition). The following applies: first compound 25 µM; colistin concentration 0.5 ug/mL; incubation time 24 h; 37 °C.
`CC[C@@H]1C(=O)OC[C@@H]1Cc1cncn1C` [Pilocarpine nitrate] + CCC(C)CCCC(=O)N[C@@H](CCN)C(=O)N[C@H](C(=O)N[C@@H](CCN)C(=O)N[C@H]1CCNC(=O)[C@H]([C@@H](C)O)NC(=O)[C@H](CCN)NC(=O)[C@H](CCN)NC(=O)[C@H](CC(C)C)NC(=O)[C@@H](CC(C)C)NC(=O)[C@H](CCN)NC1=O)[C@@H](C)O [colistin]: the OD600 was inactive: 1.17. In the case of `CCN1CCN(C(=O)N[C@@H](C(=O)N[C@@H]2C(=O)N3[C@@H]2SC(C)(C)[C@@H]3C(=O)O)c2ccccc2)C(=O)C1=O` [Piperacillin sodium] + CCC(C)CCCC(=O)N[C@@H](CCN)C(=O)N[C@H](C(=O)N[C@@H](CCN)C(=O)N[C@H]1CCNC(=O)[C@H]([C@@H](C)O)NC(=O)[C@H](CCN)NC(=O)[C@H](CCN)NC(=O)[C@H](CC(C)C)NC(=O)[C@@H](CC(C)C)NC(=O)[C@H](CCN)NC1=O)[C@@H](C)O [colistin], the OD600 was inactive: 1.04. In the case of `C=CC(=O)Nc1cc(Nc2nccc(-c3cn(C)c4ccccc34)n2)c(OC)cc1N(C)CCN(C)C` [Osimertinib] + CCC(C)CCCC(=O)N[C@@H](CCN)C(=O)N[C@H](C(=O)N[C@@H](CCN)C(=O)N[C@H]1CCNC(=O)[C@H]([C@@H](C)O)NC(=O)[C@H](CCN)NC(=O)[C@H](CCN)NC(=O)[C@H](CC(C)C)NC(=O)[C@@H](CC(C)C)NC(=O)[C@H](CCN)NC1=O)[C@@H](C)O [colistin], the OD600 is inactive: 0.773. Regarding `CCCCNC(=O)NS(=O)(=O)c1ccc(C)cc1` [Tolbutamide] + CCC(C)CCCC(=O)N[C@@H](CCN)C(=O)N[C@H](C(=O)N[C@@H](CCN)C(=O)N[C@H]1CCNC(=O)[C@H]([C@@H](C)O)NC(=O)[C@H](CCN)NC(=O)[C@H](CCN)NC(=O)[C@H](CC(C)C)NC(=O)[C@@H](CC(C)C)NC(=O)[C@H](CCN)NC1=O)[C@@H](C)O [colistin], the OD600 was inactive: 1.16. Take `CCOc1cc2ncc(C#N)c(Nc3ccc(OCc4ccccn4)c(Cl)c3)c2cc1NC(=O)/C=C/CN(C)C` [Neratinib] + CCC(C)CCCC(=O)N[C@@H](CCN)C(=O)N[C@H](C(=O)N[C@@H](CCN)C(=O)N[C@H]1CCNC(=O)[C@H]([C@@H](C)O)NC(=O)[C@H](CCN)NC(=O)[C@H](CCN)NC(=O)[C@H](CC(C)C)NC(=O)[C@@H](CC(C)C)NC(=O)[C@H](CCN)NC1=O)[C@@H](C)O [colistin]: the OD600 is inactive: 0.779. Take `CC(=O)O[C@]1(C(C)=O)CC[C@H]2[C@@H]3CCC4=CC(=O)CCC4=C3[C@@H](c3ccc(N(C)C)cc3)C[C@@]21C` [Ulipristal acetate] + CCC(C)CCCC(=O)N[C@@H](CCN)C(=O)N[C@H](C(=O)N[C@@H](CCN)C(=O)N[C@H]1CCNC(=O)[C@H]([C@@H](C)O)NC(=O)[C@H](CCN)NC(=O)[C@H](CCN)NC(=O)[C@H](CC(C)C)NC(=O)[C@@H](CC(C)C)NC(=O)[C@H](CCN)NC1=O)[C@@H](C)O [colistin]: the OD600 is inactive: 0.903. Consider `O=C(O)c1ccc(-n2nc(-c3ccccc3O)nc2-c2ccccc2O)cc1` [Deferasirox] + CCC(C)CCCC(=O)N[C@@H](CCN)C(=O)N[C@H](C(=O)N[C@@H](CCN)C(=O)N[C@H]1CCNC(=O)[C@H]([C@@H](C)O)NC(=O)[C@H](CCN)NC(=O)[C@H](CCN)NC(=O)[C@H](CC(C)C)NC(=O)[C@@H](CC(C)C)NC(=O)[C@H](CCN)NC1=O)[C@@H](C)O [colistin], for which the OD600 is inactive: 1.02. As to `Cc1ccc(C)c(OCCCC(C)(C)C(=O)O)c1` [Gemfibrozil] + CCC(C)CCCC(=O)N[C@@H](CCN)C(=O)N[C@H](C(=O)N[C@@H](CCN)C(=O)N[C@H]1CCNC(=O)[C@H]([C@@H](C)O)NC(=O)[C@H](CCN)NC(=O)[C@H](CCN)NC(=O)[C@H](CC(C)C)NC(=O)[C@@H](CC(C)C)NC(=O)[C@H](CCN)NC1=O)[C@@H](C)O [colistin], the OD600 is inactive: 0.856. With `O=C1CCc2cc(OCCCCc3nnnn3C3CCCCC3)ccc2N1` [Cilostazol] + CCC(C)CCCC(=O)N[C@@H](CCN)C(=O)N[C@H](C(=O)N[C@@H](CCN)C(=O)N[C@H]1CCNC(=O)[C@H]([C@@H](C)O)NC(=O)[C@H](CCN)NC(=O)[C@H](CCN)NC(=O)[C@H](CC(C)C)NC(=O)[C@@H](CC(C)C)NC(=O)[C@H](CCN)NC1=O)[C@@H](C)O [colistin] the figure was inactive: 1.09; with `CC(=O)N[C@H]1[C@H]([C@H](O)[C@H](O)CO)OC(C(=O)O)=C[C@@H]1NC(=N)N` [Zanamivir] + CCC(C)CCCC(=O)N[C@@H](CCN)C(=O)N[C@H](C(=O)N[C@@H](CCN)C(=O)N[C@H]1CCNC(=O)[C@H]([C@@H](C)O)NC(=O)[C@H](CCN)NC(=O)[C@H](CCN)NC(=O)[C@H](CC(C)C)NC(=O)[C@@H](CC(C)C)NC(=O)[C@H](CCN)NC1=O)[C@@H](C)O [colistin], inactive: 1; with `CN(C)CCCN1c2ccccc2CCc2ccc(Cl)cc21` [Clomipramine hydrochloride] + CCC(C)CCCC(=O)N[C@@H](CCN)C(=O)N[C@H](C(=O)N[C@@H](CCN)C(=O)N[C@H]1CCNC(=O)[C@H]([C@@H](C)O)NC(=O)[C@H](CCN)NC(=O)[C@H](CCN)NC(=O)[C@H](CC(C)C)NC(=O)[C@@H](CC(C)C)NC(=O)[C@H](CCN)NC1=O)[C@@H](C)O [colistin], inactive: 1.06. In the case of `Cn1nnc2c(C(N)=O)ncn2c1=O` [Temozolomide] + CCC(C)CCCC(=O)N[C@@H](CCN)C(=O)N[C@H](C(=O)N[C@@H](CCN)C(=O)N[C@H]1CCNC(=O)[C@H]([C@@H](C)O)NC(=O)[C@H](CCN)NC(=O)[C@H](CCN)NC(=O)[C@H](CC(C)C)NC(=O)[C@@H](CC(C)C)NC(=O)[C@H](CCN)NC1=O)[C@@H](C)O [colistin], the OD600 is inactive: 1.02. Take `COc1ccc(Cl)cc1C(=O)NCCc1ccc(S(=O)(=O)NC(=O)NC2CCCCC2)cc1` [Glibenclamide] + CCC(C)CCCC(=O)N[C@@H](CCN)C(=O)N[C@H](C(=O)N[C@@H](CCN)C(=O)N[C@H]1CCNC(=O)[C@H]([C@@H](C)O)NC(=O)[C@H](CCN)NC(=O)[C@H](CCN)NC(=O)[C@H](CC(C)C)NC(=O)[C@@H](CC(C)C)NC(=O)[C@H](CCN)NC1=O)[C@@H](C)O [colistin]: the OD600 is inactive: 0.978. As for `C[C@]12C=CC(=O)C=C1CC[C@H]1[C@@H]3C[C@@H](O)[C@](O)(C(=O)CO)[C@@]3(C)C[C@H](O)[C@@]12F` [Triamcinolone] + CCC(C)CCCC(=O)N[C@@H](CCN)C(=O)N[C@H](C(=O)N[C@@H](CCN)C(=O)N[C@H]1CCNC(=O)[C@H]([C@@H](C)O)NC(=O)[C@H](CCN)NC(=O)[C@H](CCN)NC(=O)[C@H](CC(C)C)NC(=O)[C@@H](CC(C)C)NC(=O)[C@H](CCN)NC1=O)[C@@H](C)O [colistin], the OD600 is inactive: 1.01.

Turning to `C[C@@H](c1nc(-c2ccc(C#N)cc2)cs1)[C@](O)(Cn1cncn1)c1cc(F)ccc1F` [Isavuconazole] + CCC(C)CCCC(=O)N[C@@H](CCN)C(=O)N[C@H](C(=O)N[C@@H](CCN)C(=O)N[C@H]1CCNC(=O)[C@H]([C@@H](C)O)NC(=O)[C@H](CCN)NC(=O)[C@H](CCN)NC(=O)[C@H](CC(C)C)NC(=O)[C@@H](CC(C)C)NC(=O)[C@H](CCN)NC1=O)[C@@H](C)O [colistin], the OD600 was inactive: 0.935.

For `C#CC1(O)CC[C@H]2[C@@H]3CCC4=CC(=O)CC[C@@H]4[C@H]3CC[C@@]21CC` (stereo partly drawn) [Norgestrel] + CCC(C)CCCC(=O)N[C@@H](CCN)C(=O)N[C@H](C(=O)N[C@@H](CCN)C(=O)N[C@H]1CCNC(=O)[C@H]([C@@H](C)O)NC(=O)[C@H](CCN)NC(=O)[C@H](CCN)NC(=O)[C@H](CC(C)C)NC(=O)[C@@H](CC(C)C)NC(=O)[C@H](CCN)NC1=O)[C@@H](C)O [colistin], the OD600 is inactive: 1. For the molecule `Cc1cccc(C)c1OCC(=O)N[C@@H](Cc1ccccc1)[C@@H](O)C[C@H](Cc1ccccc1)NC(=O)[C@H](C(C)C)N1CCCNC1=O` [Lopinavir] + CCC(C)CCCC(=O)N[C@@H](CCN)C(=O)N[C@H](C(=O)N[C@@H](CCN)C(=O)N[C@H]1CCNC(=O)[C@H]([C@@H](C)O)NC(=O)[C@H](CCN)NC(=O)[C@H](CCN)NC(=O)[C@H](CC(C)C)NC(=O)[C@@H](CC(C)C)NC(=O)[C@H](CCN)NC1=O)[C@@H](C)O [colistin], the OD600 is inactive: 0.733. Consider `CC(=O)OC[C@H]1O[C@@H]([S-])[C@H](OC(C)=O)[C@@H](OC(C)=O)[C@@H]1OC(C)=O.CCP(CC)CC.[Au+]` [Auranofin] + CCC(C)CCCC(=O)N[C@@H](CCN)C(=O)N[C@H](C(=O)N[C@@H](CCN)C(=O)N[C@H]1CCNC(=O)[C@H]([C@@H](C)O)NC(=O)[C@H](CCN)NC(=O)[C@H](CCN)NC(=O)[C@H](CC(C)C)NC(=O)[C@@H](CC(C)C)NC(=O)[C@H](CCN)NC1=O)[C@@H](C)O [colistin], for which the OD600 was active: 0.036.
